# Measured values reported in PMC6196236.
# Results are given in words; binding and its absence hold for the method and conditions named. Binding seen in cells or lysates may run through a third protein. Here binding means that the protein was enriched with, or labelled near, the bait; the list need not be complete.
# B1: Probable malate:quinone oxidoreductase (enzyme, UniProt Q6G669 1-498)
# chain: MAKSNSKDIVLIGAGVLSTTFGSMLKEIEPDWNIHVYERLDRPAIESSNERNNAGTGHAALCELNYTVLQPDGSIDIEKAKVINEEFEISKQFWGHLVKSGSIENPREFINPLPHISYVRGKNNVKFLKDRYEAMKAFPMFDNIEYTEDIEVMKKWIPLMMKGREDNPGIMAASKIDEGTDVNFGELTRKMAKSIEAHPNATVQFNHEVVDFEQLSNGQWEVTVKNRLTGEKFKQVTDYVFIGAGGGAIPLLQKTGIPESKHLGGFPISGQFLACTNPQVIEQHDAKVYGKEPPGTPPMTVPHLDTRYIDGQRTLLFGPFANVGPKFLKNGSNLDLFKSVKTYNITTLLAAAVKNLPLIKYSFDQVIMTKEGCMNHLRTFYPEARNEDWQLYTAGKRVQVIKDTPEHGKGFIQFGTEVVNSQDHTVIALLGESPGASTSVSVALEVLERNFPEYKTEWAPKIKKMIPSYGESLIEDEKLMRKIRKQTSKDLELGYYEN
# B2: 50S ribosomal protein L28 (protein, UniProt A6QGC4 1-62)
# chain: MGKQCFVTGRKASTGNRRSHALNSTKRRWNANLQKVRILVDGKPKKVWVSARALKSGKVTRV
# B3: Secretory antigen SsaA (protein, UniProt Q2FV55 27-255)
# chain: AEQNNNGYNSNDAQSYSYTYTIDAQGNYHYTWTGNWNPSQLTQNNTYYYNNYNTYSYNNASYNNYYNHSYQYNNYTNNSQTATNNYYTGGSGASYSTTSNNVHVTTTAAPSSNGRSISNGYASGSNLYTSGQCTYYVFDRVGGKIGSTWGNASNWANAAASSGYTVNNTPKVGAIMQTTQGYYGHVAYVEGVNSNGSVRVSEMNYGHGAGVVTSRTISANQAGSYNFIH
# B4: Fructose-bisphosphate aldolase (enzyme, UniProt A0ABV4SIW0 1-343)
# chain: MPIATPEVYAEMLDRAKAGKFAYPAINVTSSQTLNAALRGFAEAESDGIIQISTGGAEFLGGQYNKDMVTGAVALAEYAHIIAEKYDVTVALHTDHCPKGKLDGYVRPLLDISAERVKAGRNPLFQSHMWDGSAETLADNLAIGQELLAKAAAAKIILEVEITPTGGEEDGVSHEINDELYTTVDDAIRTAEALGLGEKGRYLLAASFGNVHGVYKPGNVVLRPELLKDLQEGVGAKYGQTAGSQPFDFVFHGGSGSTEQEIATALENGVVKMNLDTDTQYAFTRPVADHMFRNYDGVLKVDGEVGVKSQYDPRTWGKSAEAGMAKRVSEACANLRSTGTKLK
# B5: 3-hydroxy-3-methylglutaryl coenzyme A synthase (enzyme, UniProt Q9FD87 1-388)
# chain: MTIGIDKINFYVPKYYVDMAKLAEARQVDPNKFLIGIGQTEMAVSPVNQDIVSMGANAAKDIITDEDKKKIGMVIVATESAVDAAKAAAVQIHNLLGIQPFARCFEMKEACYAATPAIQLAKDYLATRPNEKVLVIATDTARYGLNSGGEPTQGAGAVAMVIAHNPSILALNEDAVAYTEDVYDFWRPTGHKYPLVDGALSKDAYIRSFQQSWNEYAKRQGKSLADFASLCFHVPFTKMGKKALESIIDNADETTQERLRSGYEDAVDYNRYVGNIYTGSLYLSLISLLENRDLQAGETIGLFSYGSGSVVEFYSATLVVGYKDHLDQAAHKALLNNRTEVSVDAYETFFKRFDDVEFDEEQDAVHEDRHIFYLSNIENNVREYHRPE
# Target: FLAG-tagged TrxP^CS (C32S TrxP) (S. aureus strain Newman)
# Experiment: affinity purification with mass spectrometry + cross-linking; mechanism-based trapping: FLAG-tagged Trx with the resolving Cys mutated to Ser expressed from pOS1 in S. aureus Newman (TrxA^CS in wild type; TrxP^CS and TrxQ^CSS in ΔtrxP/ΔtrxQ), 0.2 mM Na2S for 20 min; lysate on anti-FLAG M2 affinity gel 2 h at 4°C, eluted with 3x-FLAG peptide, trypsin, LC-MS/MS of mixed-disulfide crosslinked peptides; three biological replicates
row,Binder,binding
1,B1,binds
2,B2,binds
3,B3,binds
4,B4,binds
5,B5,binds
